In publication PMC3848765:
Results are given in words; binding and its absence hold for the method and conditions named. In cells and extracts the contact can be indirect. Some binding calls cover weakened binding; strength is not graded here. For some assays here: Sequences can lack the tags named with a protein.

Amino acid sequences for entries named in this document (tags omitted).
UniProt P19525: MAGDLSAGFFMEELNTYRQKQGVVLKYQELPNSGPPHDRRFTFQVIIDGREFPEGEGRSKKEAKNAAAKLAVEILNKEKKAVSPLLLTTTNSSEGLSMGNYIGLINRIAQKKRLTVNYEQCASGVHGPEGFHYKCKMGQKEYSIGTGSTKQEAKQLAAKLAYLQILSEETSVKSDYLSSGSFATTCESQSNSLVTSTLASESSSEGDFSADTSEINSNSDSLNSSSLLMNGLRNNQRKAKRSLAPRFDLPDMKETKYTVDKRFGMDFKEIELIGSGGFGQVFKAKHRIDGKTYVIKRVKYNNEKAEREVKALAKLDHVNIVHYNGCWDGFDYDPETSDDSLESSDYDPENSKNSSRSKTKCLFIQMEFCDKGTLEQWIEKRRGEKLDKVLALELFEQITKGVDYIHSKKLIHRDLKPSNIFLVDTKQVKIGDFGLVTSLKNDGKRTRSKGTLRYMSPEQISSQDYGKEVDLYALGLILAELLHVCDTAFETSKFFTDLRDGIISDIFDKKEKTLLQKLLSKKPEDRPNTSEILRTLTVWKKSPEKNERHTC

Legend:
[1] = target: Protein Kinase RNA-activated (PKR) (human (endogenous in Jurkat)) (UniProt P19525); assay: co-IP; Jurkat cells mock-infected or infected with HIV-1 pNL4-3, lysates at day 15 (peak of infection); IP with anti-PKR or anti-ADAR1; blots with anti-PKR, anti-ADAR1, anti-PACT
[2] = target: T1, Flag-PACT (UniProt O75569); assay: co-IP; HEK 293T transfected with Flag-PACT or ADAR1 p150-V5; IP with anti-Flag or anti-V5 on protein G agarose, 2 mg protein, overnight 4°C; blot for endogenous ADAR1 or PACT; no nuclease
T1 sequence: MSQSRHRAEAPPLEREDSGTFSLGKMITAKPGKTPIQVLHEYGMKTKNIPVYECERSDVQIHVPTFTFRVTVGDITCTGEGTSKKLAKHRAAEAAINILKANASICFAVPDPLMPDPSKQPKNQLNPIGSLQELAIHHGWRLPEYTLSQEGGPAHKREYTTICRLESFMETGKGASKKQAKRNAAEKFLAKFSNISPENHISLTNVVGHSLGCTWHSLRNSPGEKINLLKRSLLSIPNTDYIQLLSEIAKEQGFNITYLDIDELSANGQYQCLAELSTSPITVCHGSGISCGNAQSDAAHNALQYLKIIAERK

[3] = target: T1, Flag-PACT; assay: co-IP; as a2, but beads treated with 250 U/ml Benzonase in 50 mM Tris-HCl, 1 mM MgCl2, pH 8.0, 30 min 37°C (removal of RNAs)
[4] = target: T2, Adenosine Deaminase Acting on RNA (ADAR)1 (human (endogenous in Jurkat)) (UniProt P55265); assay: co-IP; Jurkat cells mock-infected or infected with HIV-1 pNL4-3, lysates at day 15 (peak of infection); IP with anti-PKR or anti-ADAR1; blots with anti-PKR, anti-ADAR1, anti-PACT
T2 sequence: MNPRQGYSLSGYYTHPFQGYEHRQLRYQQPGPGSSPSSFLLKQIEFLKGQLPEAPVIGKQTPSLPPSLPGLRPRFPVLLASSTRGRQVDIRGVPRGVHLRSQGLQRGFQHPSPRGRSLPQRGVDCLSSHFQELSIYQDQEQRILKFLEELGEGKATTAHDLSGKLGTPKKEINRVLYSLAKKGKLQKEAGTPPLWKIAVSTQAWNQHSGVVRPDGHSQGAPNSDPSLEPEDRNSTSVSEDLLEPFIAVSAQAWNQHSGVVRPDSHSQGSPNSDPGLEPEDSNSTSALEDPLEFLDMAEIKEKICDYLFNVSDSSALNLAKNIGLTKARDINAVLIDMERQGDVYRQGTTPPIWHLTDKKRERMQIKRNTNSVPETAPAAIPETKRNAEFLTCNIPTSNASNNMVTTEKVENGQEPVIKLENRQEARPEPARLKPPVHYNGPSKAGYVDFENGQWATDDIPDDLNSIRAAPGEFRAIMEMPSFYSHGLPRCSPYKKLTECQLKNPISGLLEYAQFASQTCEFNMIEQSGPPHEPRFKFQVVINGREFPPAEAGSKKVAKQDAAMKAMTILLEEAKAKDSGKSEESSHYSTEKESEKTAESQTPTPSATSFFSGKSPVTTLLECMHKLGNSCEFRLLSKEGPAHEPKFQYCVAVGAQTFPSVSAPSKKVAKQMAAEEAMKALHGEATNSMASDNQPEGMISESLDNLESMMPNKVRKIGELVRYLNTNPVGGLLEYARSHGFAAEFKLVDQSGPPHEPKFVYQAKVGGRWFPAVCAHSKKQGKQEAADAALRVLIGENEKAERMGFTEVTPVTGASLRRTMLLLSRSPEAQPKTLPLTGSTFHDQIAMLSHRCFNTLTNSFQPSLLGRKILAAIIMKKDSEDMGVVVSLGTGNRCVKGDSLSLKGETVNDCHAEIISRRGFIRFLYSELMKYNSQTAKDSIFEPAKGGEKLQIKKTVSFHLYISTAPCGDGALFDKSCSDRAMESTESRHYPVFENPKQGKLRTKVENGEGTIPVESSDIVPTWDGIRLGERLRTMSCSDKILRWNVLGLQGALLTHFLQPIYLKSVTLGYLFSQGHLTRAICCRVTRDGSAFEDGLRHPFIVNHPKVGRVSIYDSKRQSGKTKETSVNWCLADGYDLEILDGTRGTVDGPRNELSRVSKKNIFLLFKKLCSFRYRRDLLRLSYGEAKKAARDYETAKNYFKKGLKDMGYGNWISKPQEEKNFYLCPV

[5] = target: T3, ADAR1 p150-V5 (UniProt P55265); assay: co-IP; HEK 293T transfected with Flag-PACT or ADAR1 p150-V5; IP with anti-Flag or anti-V5 on protein G agarose, 2 mg protein, overnight 4°C; blot for endogenous ADAR1 or PACT; no nuclease
T3 sequence: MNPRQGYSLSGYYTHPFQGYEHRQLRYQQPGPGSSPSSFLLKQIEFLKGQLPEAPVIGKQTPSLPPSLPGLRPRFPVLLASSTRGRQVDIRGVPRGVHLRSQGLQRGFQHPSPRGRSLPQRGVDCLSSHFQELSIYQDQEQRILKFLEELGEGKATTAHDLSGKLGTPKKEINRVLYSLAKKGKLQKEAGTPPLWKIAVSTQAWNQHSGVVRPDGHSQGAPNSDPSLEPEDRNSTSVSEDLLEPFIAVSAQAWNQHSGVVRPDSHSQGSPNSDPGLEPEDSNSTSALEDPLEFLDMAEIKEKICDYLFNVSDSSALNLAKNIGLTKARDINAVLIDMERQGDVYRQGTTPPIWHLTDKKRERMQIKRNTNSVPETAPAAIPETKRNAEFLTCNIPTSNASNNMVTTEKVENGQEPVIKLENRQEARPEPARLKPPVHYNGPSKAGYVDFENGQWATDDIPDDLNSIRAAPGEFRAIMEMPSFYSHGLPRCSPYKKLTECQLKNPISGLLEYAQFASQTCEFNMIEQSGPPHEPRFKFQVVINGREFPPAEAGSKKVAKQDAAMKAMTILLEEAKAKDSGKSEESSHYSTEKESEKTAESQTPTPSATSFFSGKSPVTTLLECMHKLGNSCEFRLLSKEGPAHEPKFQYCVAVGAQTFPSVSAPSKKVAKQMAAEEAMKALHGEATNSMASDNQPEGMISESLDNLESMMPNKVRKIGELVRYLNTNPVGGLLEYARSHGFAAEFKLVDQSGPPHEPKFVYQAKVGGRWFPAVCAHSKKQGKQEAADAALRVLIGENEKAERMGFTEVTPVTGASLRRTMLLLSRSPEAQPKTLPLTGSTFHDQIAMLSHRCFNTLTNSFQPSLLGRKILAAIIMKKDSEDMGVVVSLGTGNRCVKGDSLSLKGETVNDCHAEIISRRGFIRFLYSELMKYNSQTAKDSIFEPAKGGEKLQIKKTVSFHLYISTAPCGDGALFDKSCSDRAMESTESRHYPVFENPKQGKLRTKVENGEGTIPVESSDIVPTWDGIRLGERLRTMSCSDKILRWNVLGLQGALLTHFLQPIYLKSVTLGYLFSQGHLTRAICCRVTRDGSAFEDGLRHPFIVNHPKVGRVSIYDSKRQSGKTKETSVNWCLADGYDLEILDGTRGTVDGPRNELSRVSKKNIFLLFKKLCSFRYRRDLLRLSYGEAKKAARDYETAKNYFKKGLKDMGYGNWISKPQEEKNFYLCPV

B1: Adenosine Deaminase Acting on RNA (ADAR)1 (protein, UniProt P55265 1-1226)
chain: MNPRQGYSLSGYYTHPFQGYEHRQLRYQQPGPGSSPSSFLLKQIEFLKGQLPEAPVIGKQTPSLPPSLPGLRPRFPVLLASSTRGRQVDIRGVPRGVHLRSQGLQRGFQHPSPRGRSLPQRGVDCLSSHFQELSIYQDQEQRILKFLEELGEGKATTAHDLSGKLGTPKKEINRVLYSLAKKGKLQKEAGTPPLWKIAVSTQAWNQHSGVVRPDGHSQGAPNSDPSLEPEDRNSTSVSEDLLEPFIAVSAQAWNQHSGVVRPDSHSQGSPNSDPGLEPEDSNSTSALEDPLEFLDMAEIKEKICDYLFNVSDSSALNLAKNIGLTKARDINAVLIDMERQGDVYRQGTTPPIWHLTDKKRERMQIKRNTNSVPETAPAAIPETKRNAEFLTCNIPTSNASNNMVTTEKVENGQEPVIKLENRQEARPEPARLKPPVHYNGPSKAGYVDFENGQWATDDIPDDLNSIRAAPGEFRAIMEMPSFYSHGLPRCSPYKKLTECQLKNPISGLLEYAQFASQTCEFNMIEQSGPPHEPRFKFQVVINGREFPPAEAGSKKVAKQDAAMKAMTILLEEAKAKDSGKSEESSHYSTEKESEKTAESQTPTPSATSFFSGKSPVTTLLECMHKLGNSCEFRLLSKEGPAHEPKFQYCVAVGAQTFPSVSAPSKKVAKQMAAEEAMKALHGEATNSMASDNQPEGMISESLDNLESMMPNKVRKIGELVRYLNTNPVGGLLEYARSHGFAAEFKLVDQSGPPHEPKFVYQAKVGGRWFPAVCAHSKKQGKQEAADAALRVLIGENEKAERMGFTEVTPVTGASLRRTMLLLSRSPEAQPKTLPLTGSTFHDQIAMLSHRCFNTLTNSFQPSLLGRKILAAIIMKKDSEDMGVVVSLGTGNRCVKGDSLSLKGETVNDCHAEIISRRGFIRFLYSELMKYNSQTAKDSIFEPAKGGEKLQIKKTVSFHLYISTAPCGDGALFDKSCSDRAMESTESRHYPVFENPKQGKLRTKVENGEGTIPVESSDIVPTWDGIRLGERLRTMSCSDKILRWNVLGLQGALLTHFLQPIYLKSVTLGYLFSQGHLTRAICCRVTRDGSAFEDGLRHPFIVNHPKVGRVSIYDSKRQSGKTKETSVNWCLADGYDLEILDGTRGTVDGPRNELSRVSKKNIFLLFKKLCSFRYRRDLLRLSYGEAKKAARDYETAKNYFKKGLKDMGYGNWISKPQEEKNFYLCPV
- binding [1]: binds

B2: endogenous ADAR1 (HEK 293T) (protein, UniProt P55265 1-1226)
chain: MNPRQGYSLSGYYTHPFQGYEHRQLRYQQPGPGSSPSSFLLKQIEFLKGQLPEAPVIGKQTPSLPPSLPGLRPRFPVLLASSTRGRQVDIRGVPRGVHLRSQGLQRGFQHPSPRGRSLPQRGVDCLSSHFQELSIYQDQEQRILKFLEELGEGKATTAHDLSGKLGTPKKEINRVLYSLAKKGKLQKEAGTPPLWKIAVSTQAWNQHSGVVRPDGHSQGAPNSDPSLEPEDRNSTSVSEDLLEPFIAVSAQAWNQHSGVVRPDSHSQGSPNSDPGLEPEDSNSTSALEDPLEFLDMAEIKEKICDYLFNVSDSSALNLAKNIGLTKARDINAVLIDMERQGDVYRQGTTPPIWHLTDKKRERMQIKRNTNSVPETAPAAIPETKRNAEFLTCNIPTSNASNNMVTTEKVENGQEPVIKLENRQEARPEPARLKPPVHYNGPSKAGYVDFENGQWATDDIPDDLNSIRAAPGEFRAIMEMPSFYSHGLPRCSPYKKLTECQLKNPISGLLEYAQFASQTCEFNMIEQSGPPHEPRFKFQVVINGREFPPAEAGSKKVAKQDAAMKAMTILLEEAKAKDSGKSEESSHYSTEKESEKTAESQTPTPSATSFFSGKSPVTTLLECMHKLGNSCEFRLLSKEGPAHEPKFQYCVAVGAQTFPSVSAPSKKVAKQMAAEEAMKALHGEATNSMASDNQPEGMISESLDNLESMMPNKVRKIGELVRYLNTNPVGGLLEYARSHGFAAEFKLVDQSGPPHEPKFVYQAKVGGRWFPAVCAHSKKQGKQEAADAALRVLIGENEKAERMGFTEVTPVTGASLRRTMLLLSRSPEAQPKTLPLTGSTFHDQIAMLSHRCFNTLTNSFQPSLLGRKILAAIIMKKDSEDMGVVVSLGTGNRCVKGDSLSLKGETVNDCHAEIISRRGFIRFLYSELMKYNSQTAKDSIFEPAKGGEKLQIKKTVSFHLYISTAPCGDGALFDKSCSDRAMESTESRHYPVFENPKQGKLRTKVENGEGTIPVESSDIVPTWDGIRLGERLRTMSCSDKILRWNVLGLQGALLTHFLQPIYLKSVTLGYLFSQGHLTRAICCRVTRDGSAFEDGLRHPFIVNHPKVGRVSIYDSKRQSGKTKETSVNWCLADGYDLEILDGTRGTVDGPRNELSRVSKKNIFLLFKKLCSFRYRRDLLRLSYGEAKKAARDYETAKNYFKKGLKDMGYGNWISKPQEEKNFYLCPV
- binding [2]: binds
- binding [3]: binds

B3: PKR Activator (PACT) (protein, UniProt O75569 1-313)
chain: MSQSRHRAEAPPLEREDSGTFSLGKMITAKPGKTPIQVLHEYGMKTKNIPVYECERSDVQIHVPTFTFRVTVGDITCTGEGTSKKLAKHRAAEAAINILKANASICFAVPDPLMPDPSKQPKNQLNPIGSLQELAIHHGWRLPEYTLSQEGGPAHKREYTTICRLESFMETGKGASKKQAKRNAAEKFLAKFSNISPENHISLTNVVGHSLGCTWHSLRNSPGEKINLLKRSLLSIPNTDYIQLLSEIAKEQGFNITYLDIDELSANGQYQCLAELSTSPITVCHGSGISCGNAQSDAAHNALQYLKIIAERK
- binding [4]: binds

B4: endogenous PACT (HEK 293T) (protein, UniProt O75569 1-313)
chain: MSQSRHRAEAPPLEREDSGTFSLGKMITAKPGKTPIQVLHEYGMKTKNIPVYECERSDVQIHVPTFTFRVTVGDITCTGEGTSKKLAKHRAAEAAINILKANASICFAVPDPLMPDPSKQPKNQLNPIGSLQELAIHHGWRLPEYTLSQEGGPAHKREYTTICRLESFMETGKGASKKQAKRNAAEKFLAKFSNISPENHISLTNVVGHSLGCTWHSLRNSPGEKINLLKRSLLSIPNTDYIQLLSEIAKEQGFNITYLDIDELSANGQYQCLAELSTSPITVCHGSGISCGNAQSDAAHNALQYLKIIAERK
- binding [5]: binds
